The list does not hold the whole screen: it is rich in T/C values a quarter to a half above the control, in often repeated tests (any T/C) and in doses without a T/C. Further doses and runs are listed elsewhere. T/C gives the treated animals as a percentage of the vehicle group. Some doses have a count of surviving animals in place of a T/C: the source files T/C as zero there, which appears to mark a toxic dose or a test without result, not a measured value. Some survivor counts are full or nearly so, which does not show that the dose was tolerated: survival well below the control is almost never listed, so the zero probably covers shortened survival too. Survivors were counted at the toxicity check, usually on the fifth day, unless a day is given; later deaths do not show. Schedule codes are those of the source, read here as Q, the interval in days (D) or hours (H), X, the number of doses. Some entries hold several experiments; the results are listed from low to high. Some schedule codes hold Z or #, which are not explained here.

The test has as its system L1210 leukemia ip in BDF1 mice, survival T/C. The test is described as follows: NCI In Vivo Anticancer Drug Screen. Data for tumor model L1210 Leukemia (intraperitoneal) in B6D2F1 (BDF1) mice. Particulars: T/C endpoint: mean survival time, higher T/C = longer survival.
The mark [1] stands for this setting: dose: 100.0 mg/kg/injection, schedule: Q01DX001 (ip), vehicle: saline.
[2] abbreviates: dose: 400.0 mg/kg/injection, schedule: Q01DX001 (ip), vehicle: saline.
Setting [3] is: dose: 200.0 mg/kg/injection, schedule: Q01DX001 (ip), vehicle: saline.
The mark [4] stands for this setting: dose: 100.0 mg/kg/injection, schedule: Q01DX009 (ip), vehicle: saline with Tween-80.
[5] abbreviates: dose: 400.0 mg/kg/injection, schedule: Q01DX009 (ip), vehicle: saline with Tween-80.
Where [6] appears, read: dose: 100.0 mg/kg/injection, schedule: Q04DX003 (ip), vehicle: saline.
[7] abbreviates: dose: 400.0 mg/kg/injection, schedule: Q04DX003 (ip), vehicle: saline.
Where [8] appears, read: dose: 25.0 mg/kg/injection, schedule: Q01DX009 (ip), vehicle: saline.
Setting [9] is: dose: 50.0 mg/kg/injection, schedule: Q01DX009 (ip), vehicle: saline.
Setting [10] is: dose: 100.0 mg/kg/injection, schedule: Q01DX009 (ip), vehicle: saline.
Setting [11] is: dose: 200.0 mg/kg/injection, schedule: Q01DX009 (ip), vehicle: saline.
Where [12] appears, read: dose: 400.0 mg/kg/injection, schedule: Q01DX009 (ip), vehicle: saline.
The mark [13] stands for this setting: dose: 400.0 mg/kg/injection, schedule: Q04DX003 (ip), vehicle: Klucel (hydroxypropylcellulose) (HPC).

With `CC1CC2=C(CCCO2)C(C)C1` (stereo unspecified), the survivor count is on record as 4 of 4 under setting [1] and 4 of 4 under setting [2].
Take `CCCOc1ccc(C=Nc2ccc(C)cc2)cc1`: the survivor count (dose: 400.0 mg/kg/injection, schedule: Q01DX009 (ip), vehicle: Klucel (hydroxypropylcellulose) (HPC)) is listed as 1 of 6.
Turning to `NCCC1CCCCN1` (stereo unspecified), the survivor count by setting is: (dose: 200.0 mg/kg/injection, schedule: Q04DX003 (ip), vehicle: acetone) 0 of 6; (dose: 400.0 mg/kg/injection, schedule: Q04DX003 (ip), vehicle: acetone) 1 of 6.
As to `COc1cc2c(cc1OC)C(CCCCCCCC1NCCc3cc(OC)c(OC)cc31)NCC2` (stereo unspecified), the survivor count is recorded as 1 of 6 (dose: 32.0 mg/kg/injection, schedule: Q01DX015 (ip), vehicle: carboxymethylcellulose (CMC)); 3 of 6 (dose: 64.0 mg/kg/injection, schedule: Q01DX015 (ip), vehicle: carboxymethylcellulose (CMC)); 1 of 4 under setting [3]; 0 of 4 under setting [2].
On to `O=C(NNCN1C(=O)c2ccccc2C1=O)c1ccccc1`, for which the survivor count is listed as 5 of 6 under setting [4] and 6 of 6 under setting [5].
For the molecule `COc1cc(OC)c(/C=C/c2cc3c4ccccc4ccc3[n+](C)c2)c(OC)c1`, for the setting “dose: 25.0 mg/kg/injection, schedule: Q01DX001 (ip), vehicle: saline with Tween-80”, the survivor count is reported as 1 of 3.
For the molecule `[CH3][Sn]([CH3])=[O]`, the survivor count by setting is: (dose: 50.0 mg/kg/injection, schedule: Q01DX001 (ip), vehicle: other) 2 of 4; (dose: 80.0 mg/kg/injection, schedule: Q01DX001 (ip), vehicle: other) 0 of 4; (dose: 80.0 mg/kg/injection, schedule: Q01DX001 (ip), vehicle: saline) 0 of 6; (dose: 100.0 mg/kg/injection, schedule: Q01DX001 (ip), vehicle: other) 0 of 4; under setting [1], 2 of 6; (dose: 200.0 mg/kg/injection, schedule: Q01DX001 (ip), vehicle: other) 0 of 4. Moreover, the survivor count is 0 of 6 under setting [3]; 0 of 4 (dose: 400.0 mg/kg/injection, schedule: Q01DX001 (ip), vehicle: other); 0 of 6 under setting [2].
For the molecule `NC(=O)N/N=C(/CCC(=O)O)C(=O)O`, the survivor count is 6 of 6 under setting [6] and 6 of 6 under setting [7].
Consider `[Ni+2].[SH2+]C([SH2+])=Nc1ccccc1.[SH2+]C([SH2+])=Nc1ccccc1.c1ccc(C[P+](c2ccccc2)(c2ccccc2)c2ccccc2)cc1`, for which the survivor count (dose: 12.0 mg/kg/injection, schedule: Q01DX009 (ip), vehicle: saline) is on record as 5 of 6; the survivor count under setting [8] is listed as 0 of 6; the survivor count under setting [9] is 1 of 6; the survivor count under setting [10] is 0 of 6; the survivor count under setting [11] is recorded as 0 of 6.
Take `O=COCC(O)COC=O`: the survivor count runs as follows: under setting [11], 6 of 6; under setting [12], 3 of 6.
For the molecule `CC(C)CC(C)NCC(C)O` (stereo unspecified), the survivor count (dose: 300.0 mg/kg/injection, schedule: Q01DX001 (ip), vehicle: acid diluted with saline) is recorded as 0 of 6.
In the case of `C=Cc1ccc(N)cc1`, the survivor count is 6 of 6 under setting [4] and 6 of 6 (dose: 400.0 mg/kg/injection, schedule: Q04DX003 (ip), vehicle: saline with Tween-80).
On to `CC1(C)c2ccccc2C(O)(CCl)c2ccccc21`, for which the survivor count is, setting by setting: under setting [4], 6 of 6; (dose: 200.0 mg/kg/injection, schedule: Q01DX009 (ip), vehicle: saline with Tween-80) 0 of 6; under setting [5], 0 of 6.
As to `c1ccc(COc2ccccn2)cc1`, the survivor count (dose: 200.0 mg/kg/injection, schedule: Q01DX009 (ip), vehicle: Klucel (hydroxypropylcellulose) (HPC)) is on record as 3 of 6 and the survivor count under setting [13] is 6 of 6.
Turning to `Nc1cncc2ccccc12`, the survivor count is reported as 1 of 6 (dose: 200.0 mg/kg/injection, schedule: Q04DX003 (ip), vehicle: gum acacia) and 0 of 6 (dose: 400.0 mg/kg/injection, schedule: Q04DX003 (ip), vehicle: gum acacia).
Regarding `O=[N+]([O-])c1ccc(O)c(C2N(Cc3ccc(N(CCCl)CCCl)cc3)CCCN2Cc2ccc(N(CCCl)CCCl)cc2)c1`, the survivor count (dose: 400.0 mg/kg/injection, schedule: Q01DX001 (ip), vehicle: carboxymethylcellulose (CMC)) is 2 of 4.
Regarding `NC(N)=N/N=C(\c1ccc(F)cc1)C1CC1`, the survivor count by setting is: (dose: 60.0 mg/kg/injection, schedule: Q01DX Z (ip), vehicle: methylcellulose (MC)) 1 of 6; (dose: 120.0 mg/kg/injection, schedule: Q01DX Z (ip), vehicle: methylcellulose (MC)) 0 of 6; (dose: 240.0 mg/kg/injection, schedule: Q01DX Z (oral), vehicle: methylcellulose (MC)) 1 of 6; (dose: 480.0 mg/kg/injection, schedule: Q01DX Z (oral), vehicle: methylcellulose (MC)) 1 of 6.
With `CCC[As](=O)(O)CC(C)C`, the survivor count (dose: 6.25 mg/kg/injection, schedule: Q01DX009 (ip), vehicle: saline) is recorded as 1 of 3; the survivor count under setting [8] was 1 of 3 and 2 of 6; the survivor count (dose: 50.0 mg/kg/injection, schedule: Q01DX001 (ip), vehicle: saline) is 3 of 6; the survivor count under setting [9] is 0 of 3 and 1 of 6; the survivor count under setting [1] is reported as 3 of 6; the survivor count under setting [10] is 0 of 3 and 0 of 6. In addition, the survivor count is, setting by setting: (dose: 100.0 mg/kg/injection, schedule: Q04DX002 (ip), vehicle: saline) 1 of 6; under setting [6], 4 of 6; under setting [3], 0 of 6; under setting [11], 0 of 6; (dose: 200.0 mg/kg/injection, schedule: Q04DX002 (ip), vehicle: saline) 0 of 6; under setting [2], 0 of 6. The survivor count under setting [12] is given as 0 of 6.
Consider `O=C(/C(=C/c1ccccc1)CN1CCOCC1)c1ccccc1`, for which the survivor count is given as 4 of 6 (dose: 200.0 mg/kg/injection, schedule: Q04DX003 (ip), vehicle: Klucel (hydroxypropylcellulose) (HPC)) and 0 of 6 under setting [13].
For `COc1ccccc1C(=Nc1ccccc1)N(O)c1ccccc1`, the survivor count (dose: 10.0 mg/kg/injection, schedule: Q01DX009 (ip), vehicle: saline with Tween-80) was 3 of 6.
Consider `Nc1ccc(Nc2ccncc2)cc1`, for which the survivor count under setting [13] was 1 of 6.
Take `C=CC(C)n1c(=O)c2c(ncn2C)n(C)c1=O` (stereo unspecified): the survivor count (dose: 6.25 mg/kg/injection, schedule: Q04DX003 (ip), vehicle: saline) is given as 3 of 3; the survivor count (dose: 12.5 mg/kg/injection, schedule: Q04DX003 (ip), vehicle: saline) was 0 of 3; the survivor count (dose: 25.0 mg/kg/injection, schedule: Q04DX003 (ip), vehicle: saline) is 0 of 3; the survivor count under setting [6] is given as 0 of 3; the survivor count (dose: 200.0 mg/kg/injection, schedule: Q04DX003 (ip), vehicle: saline) was 0 of 3; the survivor count under setting [7] was 0 of 3.
Turning to `CC1CC(C)S(=O)(=O)C1` (stereo unspecified), under setting [1], the survivor count is recorded as 0 of 6.
With `O=[N+]([O-])c1ccc(N/N=C/C#Cc2ccccc2)c([N+](=O)[O-])c1`, the survivor count (dose: 100.0 mg/kg/injection, schedule: Q04DX002 (ip), vehicle: saline with Tween-80) is given as 3 of 3 and the survivor count (dose: 200.0 mg/kg/injection, schedule: Q04DX002 (ip), vehicle: saline with Tween-80) was 3 of 3.
